Data on three substances can be found in article PMC11926231.

The chains behind the UniProt entries cited, without tags or fusion partners.
UniProt P34932: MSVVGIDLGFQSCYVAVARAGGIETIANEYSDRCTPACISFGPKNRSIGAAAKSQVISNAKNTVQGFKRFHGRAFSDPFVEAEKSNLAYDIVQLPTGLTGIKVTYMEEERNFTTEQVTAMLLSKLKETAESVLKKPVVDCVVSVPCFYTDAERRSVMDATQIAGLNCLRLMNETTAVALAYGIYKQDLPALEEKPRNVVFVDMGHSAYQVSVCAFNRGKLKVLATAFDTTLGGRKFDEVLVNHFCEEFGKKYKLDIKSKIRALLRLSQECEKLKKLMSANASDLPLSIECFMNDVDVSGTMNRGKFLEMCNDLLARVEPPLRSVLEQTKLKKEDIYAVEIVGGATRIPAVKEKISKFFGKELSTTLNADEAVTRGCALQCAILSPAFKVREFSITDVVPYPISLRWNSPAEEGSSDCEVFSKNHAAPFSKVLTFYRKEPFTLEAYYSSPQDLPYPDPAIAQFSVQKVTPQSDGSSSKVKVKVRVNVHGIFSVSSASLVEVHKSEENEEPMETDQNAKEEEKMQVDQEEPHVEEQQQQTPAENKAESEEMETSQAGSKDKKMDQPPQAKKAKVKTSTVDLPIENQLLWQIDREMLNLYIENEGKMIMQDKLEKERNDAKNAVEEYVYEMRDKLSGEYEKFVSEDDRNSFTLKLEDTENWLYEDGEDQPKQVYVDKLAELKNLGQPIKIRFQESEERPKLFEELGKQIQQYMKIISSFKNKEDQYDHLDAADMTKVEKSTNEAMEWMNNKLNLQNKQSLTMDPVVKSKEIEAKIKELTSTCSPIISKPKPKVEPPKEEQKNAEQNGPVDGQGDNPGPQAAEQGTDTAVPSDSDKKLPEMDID
UniProt P11142: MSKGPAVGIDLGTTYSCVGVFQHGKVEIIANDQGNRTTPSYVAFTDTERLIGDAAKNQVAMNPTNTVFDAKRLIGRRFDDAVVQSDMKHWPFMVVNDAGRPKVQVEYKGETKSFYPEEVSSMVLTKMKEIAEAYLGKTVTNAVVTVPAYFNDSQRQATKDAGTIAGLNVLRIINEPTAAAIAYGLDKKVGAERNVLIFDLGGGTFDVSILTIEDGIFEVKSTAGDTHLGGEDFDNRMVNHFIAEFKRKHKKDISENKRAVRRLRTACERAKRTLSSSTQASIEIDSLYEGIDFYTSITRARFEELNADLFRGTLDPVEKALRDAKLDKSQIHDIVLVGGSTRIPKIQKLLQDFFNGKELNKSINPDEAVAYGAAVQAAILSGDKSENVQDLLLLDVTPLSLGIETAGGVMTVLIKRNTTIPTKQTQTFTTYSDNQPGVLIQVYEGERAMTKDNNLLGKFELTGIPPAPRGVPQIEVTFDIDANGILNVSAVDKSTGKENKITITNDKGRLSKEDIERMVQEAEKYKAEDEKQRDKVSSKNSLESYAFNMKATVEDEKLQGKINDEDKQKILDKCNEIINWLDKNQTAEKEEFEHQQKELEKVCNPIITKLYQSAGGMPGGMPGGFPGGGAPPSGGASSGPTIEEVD
UniProt P0DMV8: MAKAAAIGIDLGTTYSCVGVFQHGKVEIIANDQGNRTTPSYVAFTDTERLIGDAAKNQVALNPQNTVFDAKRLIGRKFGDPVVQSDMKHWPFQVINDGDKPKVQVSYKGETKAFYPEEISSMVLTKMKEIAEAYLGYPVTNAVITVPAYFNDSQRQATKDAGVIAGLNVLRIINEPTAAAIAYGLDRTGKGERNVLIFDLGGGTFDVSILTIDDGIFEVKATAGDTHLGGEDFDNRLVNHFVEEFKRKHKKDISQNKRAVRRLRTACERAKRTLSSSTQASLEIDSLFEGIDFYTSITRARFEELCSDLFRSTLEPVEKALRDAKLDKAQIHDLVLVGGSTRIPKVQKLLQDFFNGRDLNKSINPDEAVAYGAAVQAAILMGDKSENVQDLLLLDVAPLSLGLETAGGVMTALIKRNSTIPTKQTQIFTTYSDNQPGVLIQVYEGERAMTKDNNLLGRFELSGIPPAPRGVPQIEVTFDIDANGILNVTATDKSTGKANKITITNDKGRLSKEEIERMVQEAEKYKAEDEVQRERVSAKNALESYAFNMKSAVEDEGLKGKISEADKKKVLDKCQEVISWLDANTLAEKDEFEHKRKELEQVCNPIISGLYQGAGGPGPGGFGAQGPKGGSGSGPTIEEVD

These are yes or no findings as the source states them, for the method shown. Binding seen in cells or lysates may run through a third protein. These calls come from enrichment with a bait or labelling near it, and not all partners need be listed. Sequences can lack the tags named with a protein.

The target of this assay is T1, Flag-tagged PER2 (Flag-PER2) (human) (UniProt O15055).
T1 sequence: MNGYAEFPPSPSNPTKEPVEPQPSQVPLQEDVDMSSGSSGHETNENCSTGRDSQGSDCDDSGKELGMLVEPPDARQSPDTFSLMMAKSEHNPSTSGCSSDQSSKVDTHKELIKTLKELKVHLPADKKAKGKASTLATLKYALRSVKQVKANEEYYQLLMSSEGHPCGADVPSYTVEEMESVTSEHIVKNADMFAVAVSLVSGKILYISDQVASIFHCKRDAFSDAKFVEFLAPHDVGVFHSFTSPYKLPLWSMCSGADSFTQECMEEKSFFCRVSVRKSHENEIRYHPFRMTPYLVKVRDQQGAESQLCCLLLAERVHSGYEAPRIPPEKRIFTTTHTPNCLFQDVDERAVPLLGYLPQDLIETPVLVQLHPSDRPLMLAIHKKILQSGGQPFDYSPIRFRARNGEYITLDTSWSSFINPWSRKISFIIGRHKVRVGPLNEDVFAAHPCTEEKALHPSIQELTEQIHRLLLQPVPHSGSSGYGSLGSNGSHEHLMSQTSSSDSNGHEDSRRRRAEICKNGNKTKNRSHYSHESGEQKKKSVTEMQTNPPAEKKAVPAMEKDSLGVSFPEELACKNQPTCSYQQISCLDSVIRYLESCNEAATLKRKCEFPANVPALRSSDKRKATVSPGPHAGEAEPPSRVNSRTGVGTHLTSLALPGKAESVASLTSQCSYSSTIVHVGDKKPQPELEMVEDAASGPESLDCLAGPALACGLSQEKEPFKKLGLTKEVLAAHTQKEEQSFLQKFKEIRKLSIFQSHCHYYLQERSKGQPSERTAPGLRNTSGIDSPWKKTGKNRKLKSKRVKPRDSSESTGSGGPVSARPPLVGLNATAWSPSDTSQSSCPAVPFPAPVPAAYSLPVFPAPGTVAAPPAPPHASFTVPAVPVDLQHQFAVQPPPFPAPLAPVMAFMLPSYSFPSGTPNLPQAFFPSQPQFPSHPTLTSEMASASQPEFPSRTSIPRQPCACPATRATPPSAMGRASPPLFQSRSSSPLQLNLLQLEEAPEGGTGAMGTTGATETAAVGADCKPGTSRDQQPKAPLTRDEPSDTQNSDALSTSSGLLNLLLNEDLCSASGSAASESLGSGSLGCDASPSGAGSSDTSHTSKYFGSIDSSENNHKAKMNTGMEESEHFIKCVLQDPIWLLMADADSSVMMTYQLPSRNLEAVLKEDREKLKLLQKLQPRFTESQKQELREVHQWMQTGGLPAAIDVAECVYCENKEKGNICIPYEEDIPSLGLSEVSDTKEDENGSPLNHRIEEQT
Put plainly: affinity purification with mass spectrometry; Flag-PER2 plasmid transfected into SCC25 cells, collected after 48 h; immunoprecipitated with Flag antibody; 10% SDS-PAGE, in-gel digestion, TRIPLE TOF 6600; screening criterion unique peptide >=2.
Regarding HSPA4 (from UniProt P34932 1-840), the binding result was “binds”.
The entry for HSPA8 (from UniProt P11142 1-646) is “binds”.
The entry for “heat shock protein 70 (HSP70) in SCC25 and 293 T cells (from UniProt P0DMV8 1-641)” is “binds”.
